In ChEMBL document CHEMBL5360608, “Development of Riluzole Analogs with Improved Use-Dependent Inhibition of Skeletal Muscle Sodium Channels” (ACS Med Chem Lett, 2023) one finds IC50 data, which are given here for one molecule.

Protein sequences, listed by entry. Tags and fused reporters are not part of them.
UniProt Q15858, whole entry: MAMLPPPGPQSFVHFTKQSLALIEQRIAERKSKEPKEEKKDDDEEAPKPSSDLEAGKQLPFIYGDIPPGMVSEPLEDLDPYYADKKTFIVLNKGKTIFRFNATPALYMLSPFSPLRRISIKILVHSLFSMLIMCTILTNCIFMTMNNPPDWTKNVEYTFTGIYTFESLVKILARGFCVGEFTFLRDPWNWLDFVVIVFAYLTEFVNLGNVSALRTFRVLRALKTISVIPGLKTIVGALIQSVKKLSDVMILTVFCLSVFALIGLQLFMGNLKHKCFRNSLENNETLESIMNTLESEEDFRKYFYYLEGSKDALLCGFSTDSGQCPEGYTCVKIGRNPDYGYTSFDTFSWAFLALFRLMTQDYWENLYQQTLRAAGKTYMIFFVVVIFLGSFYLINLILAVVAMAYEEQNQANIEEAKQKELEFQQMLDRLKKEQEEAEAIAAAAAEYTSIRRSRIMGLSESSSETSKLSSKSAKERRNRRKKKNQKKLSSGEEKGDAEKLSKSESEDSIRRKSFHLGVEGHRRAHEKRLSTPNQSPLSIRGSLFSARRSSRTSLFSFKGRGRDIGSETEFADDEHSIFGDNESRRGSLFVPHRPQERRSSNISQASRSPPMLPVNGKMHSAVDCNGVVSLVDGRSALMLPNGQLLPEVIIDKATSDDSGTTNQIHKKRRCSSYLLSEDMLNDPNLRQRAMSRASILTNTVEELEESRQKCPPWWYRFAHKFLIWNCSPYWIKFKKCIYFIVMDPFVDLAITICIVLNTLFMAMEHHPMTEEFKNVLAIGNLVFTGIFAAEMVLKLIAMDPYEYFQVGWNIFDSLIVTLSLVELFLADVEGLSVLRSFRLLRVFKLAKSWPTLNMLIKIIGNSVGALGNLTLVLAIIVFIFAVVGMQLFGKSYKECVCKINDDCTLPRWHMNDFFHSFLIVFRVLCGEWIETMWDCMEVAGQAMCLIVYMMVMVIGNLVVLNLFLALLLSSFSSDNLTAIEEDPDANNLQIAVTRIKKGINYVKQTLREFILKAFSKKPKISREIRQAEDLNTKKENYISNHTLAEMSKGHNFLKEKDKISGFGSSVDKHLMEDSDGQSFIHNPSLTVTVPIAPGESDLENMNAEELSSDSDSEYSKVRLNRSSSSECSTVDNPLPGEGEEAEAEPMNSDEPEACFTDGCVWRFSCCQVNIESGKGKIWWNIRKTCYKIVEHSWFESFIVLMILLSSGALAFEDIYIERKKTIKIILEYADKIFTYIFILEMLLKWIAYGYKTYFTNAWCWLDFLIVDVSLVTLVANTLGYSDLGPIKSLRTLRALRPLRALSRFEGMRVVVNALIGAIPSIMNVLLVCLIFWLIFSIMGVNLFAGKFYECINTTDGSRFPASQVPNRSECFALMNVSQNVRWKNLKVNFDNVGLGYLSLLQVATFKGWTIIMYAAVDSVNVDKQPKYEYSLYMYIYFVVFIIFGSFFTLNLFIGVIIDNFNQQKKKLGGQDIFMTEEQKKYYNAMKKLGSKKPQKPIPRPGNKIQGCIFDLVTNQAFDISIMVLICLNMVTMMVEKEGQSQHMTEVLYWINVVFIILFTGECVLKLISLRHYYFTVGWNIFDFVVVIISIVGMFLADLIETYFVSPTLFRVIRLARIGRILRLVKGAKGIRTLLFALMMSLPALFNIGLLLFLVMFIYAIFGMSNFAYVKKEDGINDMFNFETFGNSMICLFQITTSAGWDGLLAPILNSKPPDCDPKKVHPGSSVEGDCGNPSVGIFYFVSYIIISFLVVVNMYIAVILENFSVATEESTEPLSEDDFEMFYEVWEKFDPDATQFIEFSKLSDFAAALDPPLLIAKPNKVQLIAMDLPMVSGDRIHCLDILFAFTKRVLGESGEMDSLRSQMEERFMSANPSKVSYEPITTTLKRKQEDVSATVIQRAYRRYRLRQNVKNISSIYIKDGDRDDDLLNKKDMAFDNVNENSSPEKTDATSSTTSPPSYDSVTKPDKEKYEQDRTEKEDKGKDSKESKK

Molecules are shown by their SMILES.

Assay [1] addresses T1, Sodium channel protein type 9 subunit alpha (Homo sapiens, UniProt Q15858). Kind of assay: Inhibition of human Nav 1.7 expressed in HEK293T cells assessed as tonic block at 0.1 Hz by whole cell patch clamp assay. The class given is cell-based.
The target in assay [2] is T1, Sodium channel protein type 9 subunit alpha. Kind of assay: Inhibition of human Nav 1.7 expressed in HEK293T cells assessed as phasic block at 10 Hz by whole cell patch clamp assay. It is filed as cell-based. A general note: The patch-clamp technique gives a direct electrical read-out from membranes.

Broadly, the IC50 is the concentration that inhibits the measured activity by half. In the case of `Nc1nc2ccc(OC(F)(F)F)cc2s1` [RILUZOLE], the IC50 stood at 56 µM in assay [1] and 41 µM in assay [2].
